These are yes or no findings as the source states them, for the method shown. Binding seen in cells or lysates may run through a third protein. Binding calls can cover weak binding; strength is not graded here.
Target: T1, CLN3 (UniProt Q13286)
T1 sequence: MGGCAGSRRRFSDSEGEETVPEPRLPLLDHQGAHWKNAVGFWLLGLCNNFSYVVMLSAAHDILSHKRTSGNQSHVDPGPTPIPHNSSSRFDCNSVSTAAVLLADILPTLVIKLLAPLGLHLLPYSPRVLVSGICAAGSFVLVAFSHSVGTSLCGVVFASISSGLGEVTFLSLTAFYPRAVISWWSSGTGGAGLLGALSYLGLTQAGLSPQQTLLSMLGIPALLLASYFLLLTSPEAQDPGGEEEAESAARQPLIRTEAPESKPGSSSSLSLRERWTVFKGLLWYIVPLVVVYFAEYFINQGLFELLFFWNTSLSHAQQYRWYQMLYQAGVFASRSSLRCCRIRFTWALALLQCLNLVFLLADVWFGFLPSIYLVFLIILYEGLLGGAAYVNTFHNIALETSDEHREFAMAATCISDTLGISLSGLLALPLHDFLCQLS
Experiment: co-IP

CLN5^Y392X was tested, and the binding was “binds”.

— doi:10.1101/2020.12.24.423824 (bioRxiv, 2020)
